The record followed here is paper doi:10.1101/2024.09.05.611419.

Protein sequences, listed by entry. Tags and fused reporters are not part of them.
UniProt P25586: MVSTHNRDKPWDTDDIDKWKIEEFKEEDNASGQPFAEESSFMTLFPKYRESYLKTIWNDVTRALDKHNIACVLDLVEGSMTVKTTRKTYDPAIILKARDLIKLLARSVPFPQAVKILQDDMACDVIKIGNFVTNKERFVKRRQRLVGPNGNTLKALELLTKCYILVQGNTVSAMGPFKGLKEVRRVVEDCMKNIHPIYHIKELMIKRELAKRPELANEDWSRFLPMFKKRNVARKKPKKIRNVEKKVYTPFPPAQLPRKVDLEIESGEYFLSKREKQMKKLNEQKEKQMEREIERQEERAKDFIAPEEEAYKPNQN

No constants are given. Whether binding was seen depends on the method and setting. Binding seen in cells or lysates may run through a third protein. These calls come from enrichment with a bait or labelling near it, and not all partners need be listed. For some of these results: Tags and fused reporters may be left off the sequences shown.

For test [1], the target named is Krr1 (wild type), second bait of the split-tag purification Utp23-Krr1 (S. cerevisiae) (UniProt P25586). Description: affinity purification with mass spectrometry.
Test [2] addresses T1, protA-TEV-tagged Utp23 (S. cerevisiae) (UniProt Q12339).
T1 sequence: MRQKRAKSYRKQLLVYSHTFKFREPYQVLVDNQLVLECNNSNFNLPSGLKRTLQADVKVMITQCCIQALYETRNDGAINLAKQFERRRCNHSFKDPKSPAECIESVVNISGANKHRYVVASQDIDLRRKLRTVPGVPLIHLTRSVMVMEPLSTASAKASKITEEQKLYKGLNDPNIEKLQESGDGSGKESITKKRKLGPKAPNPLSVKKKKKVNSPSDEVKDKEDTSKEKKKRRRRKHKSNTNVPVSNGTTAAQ
Description: affinity purification with mass spectrometry.

B1: Nop9 (protein, UniProt P47077 1-666)
chain: MGKTKTRGRRHQDKQRKDEFEPSSNSAKEHIQQEESTYNDEAEIKETQPQMFFGVLDREELEYFKQAESTLQLDAFEAPEEKFQFVTSIIEEAKGKELKLVTSQITSKLMERVILECDETQLKDIFQSFNGVFFGLSCHKYASHVLETLFVRSAALVERELLTPSFDNNEKEGPYVTMENMFLFMLNELKPHLKTMMNHQYASHVLRLLILILSSKTLPNSTKANSTLRSKKSKIARKMIDIKDNDDFNKVYQTPESFKSELRDIITTLYKGFTNGAESRSDISQSTITKFREYSVDKVASPVIQLIIQVEGIFDRDRSFWRLVFNTADEKDPKEESFLEYLLSDPVGSHFLENVIGSARLKYVERLYRLYMKDRIVKLAKRDTTGAFVVRALLEHLKEKDVKQILDAVVPELSMLLNSNMDFGTAIINASNKQGGYLRDDVIAQLIQKYYPEKSDAKNILESCLLLSASTLGNTRDDWPTAEERRRSVFLEQLIDYDDKFLNITIDSMLALPEERLIQMCYHGVFSHVVEHVLQTTRVDIIKRKMLLNILSKESVNLACNVYGSHIMDKLWEFTAKLTLYKERIARALVLETEKVKNSIYGRQVWKNWKLELYVRKMWDWKKLIKEQEFEIFPNSKPLQPKPEKHSRERNNSKEGSAFKKQKHYR
For B1, the binding entry in test [1] and in test [2] was “binds” throughout.

B2: Mrd1 (protein, UniProt Q06106 1-887)
chain: MSRIIVKGLPVYLTDDNLREHFTKRLRQKHSHQAVNGSGPDLITDVKILRDRNGESRRFGFIGYRNEEDAFDAVEYFNGSFINTSKIEVSMAKSFADPRVPQPMKEKRREALKRFREKEEKLLQEENRKKKKVDENKHSNIDDEIRKNKQLQEFMETMKPSSQVTSWEKVGIDKSIEDEKLKREEEDSSVQGNSLLAHALALKEENNKDEAPNLVIENESDDEYSALNRNRDEDQEDAGEEEKMISISNLKDTDIGLVNDDANSDEKENEKRRNLAQDEKVSDLDWFKQRRVRIKESEAETREKSSSYATEQNESLDTKKEEQPERAVPQKTDEELAIEKINQTGRLFLRNILYTSKEEDFRKLFSPFGELEEVHVALDTRTGQSKGFAYVLFKDSKNAVNAYVELDKQIFQGRLLHILPGEEKKSHRLDEFDLKNMPLKKQKELKRKAAASRQTFSWNSLYMNQDAVLGSVAAKLGLEKSQLIDAENSSSAVKQALAEAHVIGDVRKYFESKGVDLTKFSQLKSTNQRDDKVILVKNFPFGTTREELGEMFLPYGKLERLLMPPAGTIAIVQFRDTTSARAAFTKLSYKRFKDGIIYLERGPKDCFTKPAEADDLINNTSAKEEENPVEVKPSSNDLMEANKDVTEGSSNAHDEDVIDGPTVSIFIKNLNFSTTNQNLTDRFKVFTGFVVAQVKTKPDPKHQGKTLSMGFGFVEFRTKEQANAVIAAMDGTVIDGHKIQLKLSHRQASQSGNTKTKSNKKSGKIIVKNLPFEATRKDVFELFNSFGQLKSVRVPKKFDKSARGFAFVEFLLPKEAENAMDQLHGVHLLGRRLVMQYAEEDAVDAEEEIARMTKKVRKQVATNEMAALRNGGGRKKLDVDDEENEGF
For B2, the binding entry in test [1] and in test [2] was “binds” each time.
